# At least one structure is not confirmed: it was looked up by name or label, or the drawing left a doubt.
smiles,measurement,value
CNCCc1c[nH]c2ccc(O)cc12 [N-methylserotonin],N-methylserotonin yield after two rounds of extraction,30 to 31 ng
